Key:
[1] = HPLC on immobilized artificial membrane column (HPLCIAM); assay type: physicochemical
[2] = RP TLC on non-impregnated control plates; assay type: physicochemical
plasma protein = details: Table S1, plasma protein binding given as fraction; ref DrugBank [7]; cited from earlier work
[3] = biological target: T1, human serum albumin (HSA) (Homo sapiens, UniProt P02768); details: pH 7.4
[4] = NP TLC on non-impregnated control plates; assay type: physicochemical; details: Table S3, non-impregnated NP plate; acetonitrile/acetate buffer pH 7.4/methanol 60:20:20
[5] = biological target: T1, human serum albumin (HSA); assay: in vitro; details: immobilized hsa column, pH 7.4

The chains behind the UniProt entries cited, without tags or fusion partners. Residues count along the entry.
UniProt P02768, 25-609: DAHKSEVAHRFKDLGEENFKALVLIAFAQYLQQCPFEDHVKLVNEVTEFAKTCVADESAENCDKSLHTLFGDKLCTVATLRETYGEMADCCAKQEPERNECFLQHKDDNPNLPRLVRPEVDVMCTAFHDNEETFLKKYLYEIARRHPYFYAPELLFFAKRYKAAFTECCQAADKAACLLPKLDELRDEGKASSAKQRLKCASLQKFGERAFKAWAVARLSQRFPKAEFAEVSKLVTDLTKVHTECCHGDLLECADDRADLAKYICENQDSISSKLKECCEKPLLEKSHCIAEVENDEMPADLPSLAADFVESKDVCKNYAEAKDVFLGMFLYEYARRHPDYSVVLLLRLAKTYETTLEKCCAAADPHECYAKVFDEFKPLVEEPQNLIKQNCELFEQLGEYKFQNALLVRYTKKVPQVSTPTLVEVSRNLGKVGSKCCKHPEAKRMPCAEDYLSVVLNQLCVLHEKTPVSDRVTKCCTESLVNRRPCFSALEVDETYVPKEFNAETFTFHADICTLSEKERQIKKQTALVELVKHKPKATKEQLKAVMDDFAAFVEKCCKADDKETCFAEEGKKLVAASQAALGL

Row | Compound | kIAM ([1]; Table S9, external group) | log kIAM ([1]; Table S9, external group) | CRP (Rf value from the non-impregnated RP plate, control) ([2]; Table S8, external group) | log k IAM ([1]; Table S5, IAM column, pH 7.4) | k IAM ([1]; Table S5, retention factor, IAM column, phosphate buffer pH 7.4/acetonitrile 80:20) | PB (plasma protein) | k HSA [3] | CNP (Rf, control NP plate) [4] | CRP (Rf, control RP plate) ([2]; Table S4, non-impregnated RP plate, acetonitrile/acetate buffer pH 7.4/methanol 60:20:20) | chromatographic logD [5]
1 | CCn1cc(C(=O)O)c(=O)c2cc(F)c(N3CCN(C)CC3)cc21 [pefloxacin] | 2.91 | 0.46 | 0.76 | – | – | – | – | – | – | –
2 | CCC[C@@H]1C[C@@H](C(=O)N[C@@H]([C@H]2O[C@H](SC)[C@H](O)[C@@H](O)[C@H]2O)[C@H](C)Cl)N(C)C1 [clindamycin] | – | – | – | 1.05 | 11.34 | 0.93 | 1.34 | 0.69 | 0.25 | 0.13

Reference: article PMC9182007, “Statistical Methods in the Study of Protein Binding and Its Relationship to Drug Bioavailability in Breast Milk” (Molecules, 2022)
